Experimental data reported in patent US20210128755.
Positions count from the first letter of the chain named. The exact form of at least one protein or probe is not confirmed. Where cells or extracts were used, other partners may take part. For some of these results: Protein sequences can lack the tags named with them.

The chains behind the UniProt entries cited, without tags or fusion partners. Residues count along the entry.
UniProt P10809, 27-573: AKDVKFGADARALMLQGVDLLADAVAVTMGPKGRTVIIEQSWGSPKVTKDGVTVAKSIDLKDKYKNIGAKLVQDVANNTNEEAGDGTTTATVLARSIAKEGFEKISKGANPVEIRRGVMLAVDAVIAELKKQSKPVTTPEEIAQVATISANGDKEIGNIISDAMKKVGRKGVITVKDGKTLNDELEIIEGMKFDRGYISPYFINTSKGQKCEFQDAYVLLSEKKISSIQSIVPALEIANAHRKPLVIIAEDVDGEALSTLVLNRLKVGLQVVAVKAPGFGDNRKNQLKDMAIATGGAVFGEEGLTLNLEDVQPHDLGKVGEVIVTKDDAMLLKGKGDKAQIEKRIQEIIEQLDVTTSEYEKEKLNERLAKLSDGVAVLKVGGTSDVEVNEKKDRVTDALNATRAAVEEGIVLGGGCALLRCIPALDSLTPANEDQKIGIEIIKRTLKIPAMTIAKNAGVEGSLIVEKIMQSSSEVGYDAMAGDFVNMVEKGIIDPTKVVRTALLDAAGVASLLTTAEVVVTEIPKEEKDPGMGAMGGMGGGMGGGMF
UniProt P08670, 2-466: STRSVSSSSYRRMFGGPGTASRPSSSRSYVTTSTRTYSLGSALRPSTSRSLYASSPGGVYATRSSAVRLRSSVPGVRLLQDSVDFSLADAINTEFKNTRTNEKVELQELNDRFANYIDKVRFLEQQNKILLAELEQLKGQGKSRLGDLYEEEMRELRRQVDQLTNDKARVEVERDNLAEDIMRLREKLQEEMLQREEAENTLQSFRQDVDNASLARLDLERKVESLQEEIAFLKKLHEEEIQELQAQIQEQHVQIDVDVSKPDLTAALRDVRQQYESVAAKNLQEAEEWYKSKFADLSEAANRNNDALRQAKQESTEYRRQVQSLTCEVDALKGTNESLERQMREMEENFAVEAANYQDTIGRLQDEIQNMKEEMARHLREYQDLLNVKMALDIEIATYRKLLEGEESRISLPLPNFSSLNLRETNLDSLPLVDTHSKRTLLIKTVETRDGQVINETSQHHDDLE

Key:
Test in all cases: pull-down
KRT6B (Homo sapiens) = molecular target: T1, KRT6B (Homo sapiens) (UniProt P04259); conditions: thioaptamer (PS positions not stated); emPAI ~0.38; cross-linked pulldown and MS; absent in R4 control; protein in cells; label: biotin; single-stranded DNA
T1 sequence (looked up, limits assumed): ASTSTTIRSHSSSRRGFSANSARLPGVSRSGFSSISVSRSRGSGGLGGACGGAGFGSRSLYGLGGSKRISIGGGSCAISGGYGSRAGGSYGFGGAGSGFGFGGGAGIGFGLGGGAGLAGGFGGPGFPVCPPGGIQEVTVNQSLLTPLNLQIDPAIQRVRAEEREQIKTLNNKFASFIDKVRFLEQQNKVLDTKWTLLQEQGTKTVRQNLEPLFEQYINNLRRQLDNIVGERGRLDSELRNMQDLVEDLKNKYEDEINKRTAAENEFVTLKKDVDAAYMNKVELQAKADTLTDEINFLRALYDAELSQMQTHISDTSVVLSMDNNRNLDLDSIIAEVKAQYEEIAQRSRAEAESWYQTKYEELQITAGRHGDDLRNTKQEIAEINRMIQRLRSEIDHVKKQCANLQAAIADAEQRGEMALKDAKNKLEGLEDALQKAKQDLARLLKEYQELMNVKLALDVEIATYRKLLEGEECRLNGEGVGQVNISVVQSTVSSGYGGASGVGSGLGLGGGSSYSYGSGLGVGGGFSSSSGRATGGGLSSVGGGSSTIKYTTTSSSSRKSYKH

[1] = molecular target: HSPD1 (printed HSPD1 + FIG. 4 legend HSPD90) (Homo sapiens) (UniProt P10809); conditions: thioaptamer (PS positions not stated), protein in cells, label: biotin, single-stranded DNA
KRT6A (Homo sapiens) = molecular target: T2, KRT6A (Homo sapiens) (UniProt P02538); conditions: thioaptamer (PS positions not stated), cross-linked pulldown and MS, absent in R4 control, protein in cells, label: biotin, single-stranded DNA
T2 sequence (looked up, limits assumed): T1 sequence (looked up, limits assumed) with I35V, A154T, D191E, N226S, N240G, L248F, I364V, T534I

[2] = molecular target: VIM (vimentin) (Homo sapiens) (UniProt P08670); conditions: thioaptamer (PS positions not stated); emPAI 2.7; cross-linked pulldown and MS; absent in R4 control; protein in cells; label: biotin; single-stranded DNA

**Q.** Does CCCCCCACGGTCTCCGCTCCACAAGTTCAC [Tau_1] bind (KRT6B (Homo sapiens))?
**A.** binds

**Q.** Does CCCCCCACGGTCTCCGCTCCACAAGTTCAC [Tau_1] bind [1]?
**A.** binds

**Q.** Does CCCCCCACGGTCTCCGCTCCACAAGTTCAC [Tau_1] bind (KRT6A (Homo sapiens); emPAI ~0.38)?
**A.** binds

**Q.** Does CCCCCCACGGTCTCCGCTCCACAAGTCCAC [Tau_3] bind [2]?
**A.** binds

**Q.** Does CCCCCCACGGTCTCCGCTCCACAAGTCCAC [Tau_3] bind ([1]; emPAI ~0.62, cross-linked pulldown and MS, absent in R4 control)?
**A.** binds

**Q.** Does CTCGTCCCACCACAACATTATCTCAACGCC [Tau_4] bind ([1]; emPAI ~1.08, cross-linked pulldown and MS, absent in R4 control)?
**A.** binds

**Q.** Does CTCGTCCCACCACAACATTATCTCAACGCC [Tau_4] bind (KRT6A (Homo sapiens); emPAI ~0.79)?
**A.** binds
